# Measured values: PubChem BioAssay AID651640 (Broad Institute, 2012)
# Several values for one entry are separate records, joined by “and”; a condition that tells them apart may be missing. Equal entries are not always repeated. Screen size: about 350,000 compounds; about 6,000 (1.7%) were called active. Inconclusive means that the source gave no clear call. Such entries were picked first, then a sample of the others. No stated cut-off is given here; in the data, active means CPE inhibition above about 20% (passing the limit was not always enough); inconclusive means no clear call, values can overlap the other calls; tested in BHK-21 cells. Where a structure was tested more than once in an assay, its records may differ in their call.
# Experiment: protection of cells from dengue 2 killing – plate reader, single concentration, primary screen (AID 651640);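 further: 0% = median of neutral control wells and 100% = median of positive control wells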
# Conditions: DENV2-infected cells, cytopathic effect rescue, at 9.99 µM, hits give high values
row,Compound,CPE inhibition
1,CCc1nc2c(OCc3ccc(C(F)(F)F)cc3)cccn2c1N(C)C(=O)CC(C)C,inconclusive: 28.4%
2,Cc1ccc(OCCC(=O)OC(C)C(=O)Nc2c(C)n(C)n(-c3ccccc3)c2=O)cc1 (centres undefined),inconclusive: 21.3%
3,COc1cccc(-c2cc(C(=O)N3CCN(S(=O)(=O)c4ccc(Br)cc4)CC3)[nH]n2)c1,inconclusive: 21.1%
4,Cc1nnc(SCC(=O)Nc2ccc(Cl)cn2)s1,inconclusive: 64.5%
5,O=C(CN(C(=O)Cn1nnc(-c2ccc(F)cc2)n1)c1cnc2ccccc2c1)NCC1CCCO1 (centres undefined),inconclusive: 23.7%
6,C[C@H]1CN([C@@H](C)CO)C(=O)Cc2cc(NS(=O)(=O)c3ccccc3)ccc2O[C@@H]1CN(C)C(=O)Nc1ccccc1,active: 23.2%
7,COc1ccccc1NC(=O)c1cc[n+](C)cc1,inactive: -0.729%
8,C/C=C/c1ccc([C@H]2[C@@H](CO)N(C(=O)COC)[C@H]2CNC(=O)CC)cc1,inactive: -1.93%
9,Cc1cccc(N/N=C/c2ccncc2)c1,inconclusive: 22.9%
10,CCOP(=O)(OCC)c1ccc2c(c1)C(=O)c1ccccc1CC2,active: 45.9%
11,Cc1cccc(Nc2nnc(SCC(=O)c3ccc(Br)s3)s2)c1C,inconclusive: 26.8%
12,CCCC(=O)Nc1ccc2c(c1)C(=O)N(C)C[C@H](OC)[C@@H](C)CN(Cc1ccc(-c3ccccn3)cc1)[C@H](C)CO2,active: 36.4%
13,CC(=O)CSc1ccc(S(=O)(=O)N2CCN(C)CC2)cn1,inconclusive: 24.3%
14,COc1cc(/C=C/C(=O)OCC(=O)Nc2cc(S(=O)(=O)N3CCCCC3)ccc2C)ccc1O,active: 21.6%
15,COc1ccc(S(=O)(=O)Nc2ccc3c(c2)CC(=O)N([C@@H](C)CO)C[C@@H](C)[C@H](CN(C)C(=O)Nc2cccc4ccccc24)O3)cc1,inactive: 2.81%
16,CCOc1cc(C(=O)Nc2ccc(N3CCN(C(C)=O)CC3)cc2)cc(OCC)c1OCC,inconclusive: 27%
17,C[C@@H]1CN([C@H](C)CO)C(=O)CCCn2nncc2CO[C@@H]1CN(C)C(=O)Cc1ccccc1,active: 53.8% and active: 32.8%
18,CCOC(=O)C1(CCOc2ccccc2)CCN(Cc2ccc(OC)c(O)c2)CC1,inconclusive: 34.4%
19,Cc1ccc(S(=O)(=O)N[C@H]2C=C[C@H](CC(=O)N3CCC(Cc4ccccc4)CC3)O[C@@H]2CO)cc1,inconclusive: 25.1%
20,Cc1ccc(S(=O)(=O)Nc2ccc3c(c2)C(=O)N([C@@H](C)CO)C[C@H](C)[C@@H](CN(C)Cc2ccncc2)O3)cc1,inconclusive: 39.9%
21,COc1ccc(NC(=O)COc2cccc(-n3cnnn3)c2)cc1Cl,inconclusive: 53.4%
22,O=C(N[C@@H]1CC[C@@H](CCn2cc(-c3ccc(F)cc3)nn2)O[C@H]1CO)c1cnccn1,inconclusive: 27.8%
23,CCCCOC(=O)CCCN1C(=O)/C(=C2\SC(=S)N(CCCC(=O)OCCCC)C2=O)SC1=S,inconclusive: 70.7%
24,Cc1cccc2cc(CN(CC3CCCO3)C(=O)c3cccs3)c(=O)[nH]c12 (centres undefined),inconclusive: 22.8%
25,COc1ccccc1NC(=O)COC(=O)c1c(C)nn(-c2ccccc2)c1C,inconclusive: 54.1%

row,Compound,CPE inhibition
1,O=C(c1ccncc1)N1C[C@H]2[C@@H](c3ccccc31)[C@@H](CO)N2C(=O)Nc1ccccc1Cl,inconclusive: 80.8%
2,Cc1ccccc1C(=O)NCC(c1ccco1)N1CCc2ccccc21 (centres undefined),inconclusive: 56.3%
3,COc1ccc(OC)c(NC(=O)NCCc2c[nH]c3ccccc23)c1,inconclusive: 23.6%
4,CNc1ccccc1C(C)(C)c1cc(-c2cccc(Br)c2)no1,inactive: 6%
5,Cc1ccccc1Oc1nc2c(c(=O)n(C)c(=O)n2C)n1C,inactive: 6.08%
6,Cc1ccccc1-c1ccc2c(c1)O[C@H](CN(C)C(=O)c1ccccn1)[C@@H](C)CN([C@@H](C)CO)S2(=O)=O,inactive: -5.81%
7,CCCNC(=O)Nc1ccc2c(c1)OC[C@@H](C)N(C(=O)CC)C[C@H](C)[C@@H](OC)CN(C)C2=O,inconclusive: 34.7%
8,CNC(=O)C[C@@H]1CC[C@H]2[C@@H](COc3ccc(NC(=O)c4ccccc4Cl)cc3C(=O)N2C)O1,inconclusive: 50.2%
9,Cc1nnc(NC(=O)CSc2nnc3c(n2)[nH]c2ccc(Br)cc23)s1,inactive: -0.174%
10,C=C(C)c1sc(-c2ccccc2)nc1C,inconclusive: 56.3%
11,CC(OC(=O)C1=COCCO1)C(=O)Nc1ccc(Cl)cn1 (centres undefined),active: 69.5%
12,COc1ccc(C(=O)Nc2ccc(N3CCN(C(=O)c4cccs4)CC3)cc2)cc1Br,inconclusive: 35%
13,CCc1ccc(/C=N/NC(=O)c2cc(-c3cccc([N+](=O)[O-])c3)n[nH]2)cc1,inactive: -2.84%
14,O=C(COC(=O)c1cc(NS(=O)(=O)c2cccs2)ccc1O)Nc1ccc(F)c(F)c1F,inactive: -0.212%
15,CC(C)CNC(=O)c1ccc2c(c1)C(=O)N(C1CCCCC1)C2=O,inconclusive: 22.5%
16,Cc1ccc(-n2c(=S)sc3c(=O)n(-c4ccccc4C)c(SCC(=O)O)nc32)cc1C,inactive: 0.888%
17,O=C(NCCNC(=O)c1ccc(Cl)cc1Cl)c1ccc(Cl)cc1Cl,inconclusive: 55.7%
18,COc1ccc(-n2c(CSc3ccc(Cl)cc3)n[nH]c2=S)cc1,inconclusive: 36.4%
19,NC(c1csc(Nc2cc(NCc3ccco3)ncn2)n1)c1ccccc1Cl (centres undefined),active: 69.5%
20,COc1cc(-c2noc(C)c2C(=O)NCCCn2ccnc2)cc(OC)c1OC,inconclusive: 61.8%
21,CN1[C@@H]2c3ccc(C4=CCCCC4)c(=O)n3C[C@H]1[C@H](CO)[C@H]2C(=O)NCc1cc(F)cc(F)c1,inactive: -0.686%
22,O=C(NCCCCCCCCNC(=O)c1cccc2ccccc12)c1cccc2ccccc12,inconclusive: 47.6%
23,O=C(NCC[C@@H]1CC[C@@H](NC(=O)C2CCCCC2)[C@@H](CO)O1)Nc1ccc(Cl)cc1,inconclusive: 42.2%
24,COC(=O)c1ccc(Sc2ccccn2)c([N+](=O)[O-])c1,active: 87.9%

# As a working copy, some entries already given:
row,Compound,CPE inhibition
9,Cc1nnc(NC(=O)CSc2nnc3c(n2)[nH]c2ccc(Br)cc23)s1,inactive: -0.174%
10,C=C(C)c1sc(-c2ccccc2)nc1C,inconclusive: 56.3%
11,CC(OC(=O)C1=COCCO1)C(=O)Nc1ccc(Cl)cn1 (centres undefined),active: 69.5%
12,COc1ccc(C(=O)Nc2ccc(N3CCN(C(=O)c4cccs4)CC3)cc2)cc1Br,inconclusive: 35%
13,CCc1ccc(/C=N/NC(=O)c2cc(-c3cccc([N+](=O)[O-])c3)n[nH]2)cc1,inactive: -2.84%
14,O=C(COC(=O)c1cc(NS(=O)(=O)c2cccs2)ccc1O)Nc1ccc(F)c(F)c1F,inactive: -0.212%
15,CC(C)CNC(=O)c1ccc2c(c1)C(=O)N(C1CCCCC1)C2=O,inconclusive: 22.5%
16,Cc1ccc(-n2c(=S)sc3c(=O)n(-c4ccccc4C)c(SCC(=O)O)nc32)cc1C,inactive: 0.888%
17,O=C(NCCNC(=O)c1ccc(Cl)cc1Cl)c1ccc(Cl)cc1Cl,inconclusive: 55.7%
18,COc1ccc(-n2c(CSc3ccc(Cl)cc3)n[nH]c2=S)cc1,inconclusive: 36.4%
19,NC(c1csc(Nc2cc(NCc3ccco3)ncn2)n1)c1ccccc1Cl (centres undefined),active: 69.5%
